Experiment: UV-Vis absorption spectral ratio for ligand loading of monomeric complexes
Assay type: physicochemical
Conditions: monomeric complex with 9-cis retinal; 2.2 = fully saturated
Source text: Again, four significant peaks with similar elution volumes can be observed when the apo di-cysteine mutant A212C:T250C of CRALBP are loaded with cis-retinal. […] The order of the peaks is as follows: the first peak from left to right corresponds to the super high molecular weight (SHMW) fractions, the second peak corresponds to the high molecular weight (HMW) fraction, the third peak corresponds to dimeric, and the fourth peak to monomeric fractions, respectively. UV-Vis absorption spectra of monomeric wild type CRALBP and of the A212C: T250C mutant in complex with 9-cis retinal were used to determine the ligand loading of the monomeric complexes. For this, the absorption spectra were normalized to the maximum absorption, of the protein at approximately 280 nm. According to Crabb et al. (Crabb J W. et al., (1998), Protein Sci. 7(3): 746-57) the absorption maximum at 280 nm corresponds to the protein concentration, and the one at 400 nm to bound 9-cis retinal. The fully saturated CRALBP in complex with 9-cis retinal has been reported by the later to have an ideal spectral ratio of ε^280/ε^400=2.2 In our experiments, the ratios for wild-type CRALBP:9-cis retinal and for the A212C:T250C:9-cis retinal mutant are 2.31 and 2.21, respectively, indicating the formation of fully saturated 1:1 complexes (see FIG. 6).

Substance | spectral ratio ε^280/ε^400
wild-type CRALBP:9-cis retinal: monomeric wild type CRALBP in complex with 9-cis retinal [reference compound] | 2.31
A212C:T250C:9-cis retinal: monomeric A212C:T250C mutant in complex with 9-cis retinal | 2.21

Source: US20240228559A1, “REDOX SENSITIVE CRALBP MUTANT PROTEINS” (UNIVERSITÄT BERN, priority 2021, published 2024)
